The values that follow come from PubChem BioAssay AID1487 (National Center for Advancing Translational Sciences (NCATS), 2009).

The nature of this test: qHTS Assay for Modulators of Lamin A Splicing. As to conditions: HeLa LMNA splicing GFP/RFP minigene ratio, 48 h. In short, it runs like this: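 Read-out is the ratio of GFP to DsRed2 object intensity, acquired by 488 nm laser-scanning cytometry on HeLa lamin A-EGFP minigene reporter cells. Compound incubation 48 hrs at 37 °C in Opti-MEM with 2% FBS; DMSO 0.5% final.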
For orientation: qHTS replaces the single test concentration by a dilution series.

The mark [1] stands for this setting: measured here: RFP viability control channel.
The mark [2] stands for this setting: measured here: GFP splicing reporter channel.

The other results are listed elsewhere or left out. Further columns of the screen follow, without active or inactive calls. Compounds called inactive in the main read-out are mostly missing here. Potencies come from curve fits of mixed quality, noted in brackets.

Broadly, the AC50 is the concentration at which the activity in the assay is half-maximal. `O=C(NCc1ccc2c(c1)OCO2)c1ccc(CS(=O)(=O)Cc2cccc(Cl)c2)o1`: under setting [1], the AC50 is 12.6 µM [rising, partial curve, poor fit].

Turning to `O=C(Nc1ccc2c(c1)CCC2)C1CCCN(c2ncccn2)C1` (stereo not drawn), the AC50 under setting [2] is 5.01 µM [rising, partial curve] and the AC50 under setting [1] was 12.6 µM [rising, partial curve].

Turning to `CC1(C)Cc2c(cnn2-c2ccccc2)-c2c1c1ccccc1n2CC(O)CCl` (stereo not drawn), the AC50 under setting [1] was 11.2 µM [rising, partial curve].

Take `CCNC(=S)N=Nc1c(O)n(Cc2ccc(Cl)cc2)c2ccccc12`: the AC50 reads like this: under setting [2], 7.94 µM [rising, partial curve, poor fit]; under setting [1], 7.08 µM [rising, partial curve, poor fit].

For the compound `COc1ccc(-c2nc3ccccc3o2)cc1NC(=O)COc1cc(C)cc(C)c1`, the AC50 is 35.5 µM [falling, partial curve, poor fit] under setting [2] and 44.7 µM [falling, partial curve, poor fit] under setting [1].

With `COc1ccc(OC)c(-n2cc3c(=O)n(C)c(=O)n(C)c3c2)c1`, the AC50 is 0.00398 µM [rising, full curve, poor fit] under setting [2] and 0.00501 µM [rising, full curve, poor fit] under setting [1].

Turning to `Cc1cc(C)c2c(c1)NC(c1cc3c(cc1Br)OCO3)C1CC=CC21` (stereo not drawn), the AC50 under setting [1] was 12.6 µM [rising, partial curve, poor fit].

Turning to `CN(C)c1ccc(-c2cc(-n3ccnc3)ncn2)cc1`, the AC50 was 35.5 µM [rising, single point] under setting [2] and 35.5 µM [rising, single point] under setting [1].

Consider `CN(C)c1ccc(/C=C/C(=O)c2ccc3c(c2)OCCO3)cc1[N+](=O)[O-]`, for which the concentration at half-maximal activity (AC50) under setting [2] was 35.5 µM [falling, single point] and the AC50 under setting [1] was 35.5 µM [falling, single point].

As for `CCOC(=O)c1ccc(N=C2SC(C(=O)NCCc3ccccc3)CC(=O)N2C)cc1` (stereo not drawn), under setting [1], the AC50 is 12.6 µM [falling, partial curve, poor fit].

Consider `CCCn1c(NCc2cc(OC)ccc2OC)nc2ccccc21`, for which the AC50 under setting [1] is 28.2 µM [rising, partial curve, poor fit].

`COc1ccc(O)c(CNc2ccccc2F)c1`: the concentration at half-maximal activity (AC50) under setting [2] is 0.0708 µM [rising, single point].

In the case of `COc1cc(C(=O)NC2(C(F)(F)F)C(=O)NC(C)=C2C#N)cc(OC)c1OC` (stereo not drawn), the AC50 by setting is: under setting [2], 1 µM [rising, full curve, poor fit]; under setting [1], 1.41 µM [rising, full curve, poor fit].

On to `Cc1cc(NC(=O)Nc2ccc3c(ccn3C)c2)sn1`, for which, under setting [1], the AC50 is 6.31 µM [falling, partial curve, poor fit].

On to `COc1ccccc1-n1cnc2cc(NCc3ccco3)ccc21`, for which the AC50 under setting [1] was 2.82 µM [rising, single point].

For the compound `O=C(O)c1ccc(O)c(N2C(=O)Nc3ccccc3N2O)c1`, under setting [1], the AC50 is 6.31 µM [falling, partial curve, poor fit].

For the compound `COCc1c(C#N)c(NCCc2ccccc2)nc(C)c1[N+](=O)[O-]`, the AC50 under setting [1] is 28.2 µM [falling, single point].

As to `O=S(=O)(Nc1ccc2c(c1)OCCO2)c1ccc2oc3ccccc3c2c1`, the AC50 is 12.6 µM [rising, partial curve, poor fit] under setting [2] and 11.2 µM [rising, partial curve] under setting [1].

`COc1ccc(N2CC(C(=O)NCCS(=O)(=O)N3CCN(c4ccccc4)CC3)CC2=O)cc1` (stereo not drawn): the concentration at half-maximal activity (AC50) runs as follows: under setting [2], 4.47 µM [falling, full curve, poor fit]; under setting [1], 5.62 µM [falling, full curve].

Regarding `O=C(CCCN1CCN(c2ccccn2)CC1)c1ccc(F)cc1`, the AC50 was 1.26 µM [falling, full curve] under setting [2] and 1.58 µM [falling, full curve] under setting [1].

Turning to `O=C(Nc1cc(Sc2ccccn2)cc([N+](=O)[O-])c1)c1cccc(F)c1`, under setting [1], the AC50 was 20 µM [rising, single point].

For `CC1CCN(c2ccc(C(=O)NCCc3ccccc3)cn2)CC1`, the AC50 runs as follows: under setting [2], 31.6 µM [rising, single point]; under setting [1], 35.5 µM [rising, single point].

Regarding `CCc1cccc(NC(=O)c2cnc(N3CCOCC3)c3ccccc23)c1`, the AC50 was 0.794 µM [falling, full curve] under setting [2] and 0.0224 µM [falling, full curve] under setting [1].

Take `CCOC(=O)c1cc(-c2ccccc2)n(CCCC(=O)Nc2ccc(C)c(Cl)c2)c1C`: the AC50 under setting [1] was 31.6 µM [rising, single point].

`COc1cc(-c2nnc(SCc3ccccc3Cl)o2)cc(OC)c1OC`: the AC50 under setting [1] is 12.6 µM [rising, single point].

As for `CCOC(=O)c1scc(-c2ccccc2)c1S(=O)(=O)Nc1ccccc1OC`, the half-maximal activity concentration (AC50) under setting [2] is 7.08 µM [rising, partial curve].

On to `CCCCN(C)CCC(=O)Nc1ccc2c(c1)CCC2`, for which, under setting [2], the AC50 was 11.2 µM [falling, single point].

As to `CC1Oc2ccccc2OC1(O)c1ccc2ccccc2n1` (stereo not drawn), the AC50 under setting [1] was 22.4 µM [rising, single point].

On to `COc1ccc(NS(=O)(=O)c2cc(NC(=O)c3cccs3)ccc2N2CCCC2)cc1`, for which the AC50 by setting is: under setting [2], 10 µM [falling, partial curve, poor fit]; under setting [1], 8.91 µM [falling, partial curve, poor fit].

Consider `Cn1c(=O)n(C)c2cc([N+](=O)[O-])c(N3CCN(C(=O)c4ccccc4)CC3)cc21`, for which, under setting [1], the AC50 is 12.6 µM [rising, partial curve].

For the compound `Cn1cnc([N+](=O)[O-])c1Sc1ccc(Br)cc1`, the AC50 under setting [1] is 10 µM [rising, partial curve].

As to `COc1ccc(/C=N/n2c(SC)nnc2-c2ccccc2)c(OC)c1OC`, the AC50 under setting [1] is 7.94 µM [rising, partial curve].

Consider `CSCC[C@H](NC(=O)NC1CCCC1)C(=O)O`, for which the AC50 under setting [2] was 0.0158 µM [rising, full curve, poor fit] and the AC50 under setting [1] was 0.0158 µM [rising, full curve, poor fit].

`Cc1cc(C)c(NC(=O)CSc2nc3ccccc3c3nc(-c4ccccc4)nn23)c(C)c1`: under setting [2], the AC50 is 0.501 µM [falling, partial curve, poor fit].
